# Test results: PubChem BioAssay AID1347072 (National Center for Advancing Translational Sciences (NCATS), 2019)
# Sequences of proteins named here, by UniProt entry; tags and fusion partners are left off.
# UniProt P51570, whole entry: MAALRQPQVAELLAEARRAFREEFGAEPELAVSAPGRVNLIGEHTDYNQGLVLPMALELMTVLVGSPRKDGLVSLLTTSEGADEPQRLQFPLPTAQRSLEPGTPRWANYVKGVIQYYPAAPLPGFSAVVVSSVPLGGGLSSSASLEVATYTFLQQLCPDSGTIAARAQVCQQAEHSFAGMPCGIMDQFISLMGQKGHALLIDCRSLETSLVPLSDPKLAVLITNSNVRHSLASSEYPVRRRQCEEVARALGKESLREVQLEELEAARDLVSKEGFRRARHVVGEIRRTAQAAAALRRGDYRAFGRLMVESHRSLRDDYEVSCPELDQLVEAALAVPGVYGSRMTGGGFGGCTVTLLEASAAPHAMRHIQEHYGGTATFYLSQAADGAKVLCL
# The whole screen tested about 44,000 compounds, of which fewer than 10 were called active. These results got no clear call from the source, so the numbers are uncertain. Calls follow the shape of the dose curve; as a rule, active = well fitted curve in the direction sought with a large enough effect; inconclusive = small, poorly fitted or top-dose-only effect, or another doubt; inactive = no such curve, though single readings can be large or run the other way.
# Molecular target: Galactokinase (Homo sapiens) (UniProt P51570)
# Experiment: qHTS Assay for Inhibitors of Human Galactokinase (GALK): NCGC Sytravon Library Screen
# Details: recombinant GALK, Kinase-Glo ATP luminescence, 1 h
# Description: Inherited deficiency of galactose-1-phosphate uridyltransferase (GALT) can result in a potentially lethal disorder called Classic Galactosemia (OMIM 230400). Several lines of evidence indicate that an elevated level of galactose-1-phosphate (gal-1-p), the product of galactokinase (GALK), is a major, if not sole, pathogenic mechanism in patients with classic galactosemia. Therefore, finding inhibitors of GALK is a potential novel therapy for this inherent metabolic disease and is the long term goal of this project. This screen is run against the NCGC Sytravon compound library collection. GALK (provided by Kent Lai) was assayed using ATP and D-(+)-Galactose (Sigma-Aldrich cat# G0750) as substrates. Promega Kinase-Glo Plus technology was used to detect kinase activity. […]
# NCGC Assay Protocol Summary: Three uL/well of ATP-buffer solution (35 uM ATP, 20mM HEPES pH8.0, 5 mM MgCl2, 60 mM NaCl, 1 mM DTT, 0.01% BSA final concentration) was dispensed into 1536-well, assay plates (Greiner, solid white medium-binding plates) with Aurora Discovery BioRAPTR Flying Reagent Dispenser (FRD; Beckton-Dickenson). […] Luminescence was detected with the ViewLux plate reader (Perkin Elmer, Waltham, MA) after 10 min incubation using a 1 sec exposure time and 2x binning.
row,Compound,Potency
1,O=C(NCC1(N2CCOCC2)CCCCC1)c1ccc(Cl)cc1,inconclusive: 3.16 µM
2,CCOc1ccc(C(=O)NCC2(N3CCOCC3)CCCCC2)cc1,inconclusive: 1.12 µM
